Drawing on article PMC10837098, this text covers binding for four molecules.

Holding throughout (assay): split reporter; firefly split luciferase; nLUC and cLUC fusion partners co-expressed in Nicotiana benthamiana leaves by agroinfiltration; 6-mm leaf discs 48 h after infiltration, 0.4 mM D-luciferin; expression normalized by HiBiT
(In general: The HiBiT peptide binds its large partner to form an active luciferase.)

The target in assay [1] is T1, Arabidopsis thaliana Regulator of G Signaling 1 protein (AtRGS1), split-luciferase fusion (Arabidopsis thaliana) (UniProt Q8H1F2).
T1 sequence: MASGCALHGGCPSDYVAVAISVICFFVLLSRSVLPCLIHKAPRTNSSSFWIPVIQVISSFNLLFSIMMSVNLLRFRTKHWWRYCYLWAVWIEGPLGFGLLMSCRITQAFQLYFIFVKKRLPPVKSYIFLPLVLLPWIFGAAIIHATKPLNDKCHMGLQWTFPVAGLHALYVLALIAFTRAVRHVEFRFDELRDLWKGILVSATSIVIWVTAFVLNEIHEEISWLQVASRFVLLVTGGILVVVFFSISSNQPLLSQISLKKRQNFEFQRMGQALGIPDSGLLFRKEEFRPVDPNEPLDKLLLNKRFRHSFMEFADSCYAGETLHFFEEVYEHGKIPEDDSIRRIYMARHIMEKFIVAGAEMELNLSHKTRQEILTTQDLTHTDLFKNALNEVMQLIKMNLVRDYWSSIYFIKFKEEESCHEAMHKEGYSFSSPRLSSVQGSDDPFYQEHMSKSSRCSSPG

Assay [2] addresses T2, AGB1/AGG1 (Gβγ) co-expressed: AGB1-nLUC with mCherry-AtAGG1 (Arabidopsis thaliana) (UniProt P49177+Q9FDX9).
T2 sequence 1: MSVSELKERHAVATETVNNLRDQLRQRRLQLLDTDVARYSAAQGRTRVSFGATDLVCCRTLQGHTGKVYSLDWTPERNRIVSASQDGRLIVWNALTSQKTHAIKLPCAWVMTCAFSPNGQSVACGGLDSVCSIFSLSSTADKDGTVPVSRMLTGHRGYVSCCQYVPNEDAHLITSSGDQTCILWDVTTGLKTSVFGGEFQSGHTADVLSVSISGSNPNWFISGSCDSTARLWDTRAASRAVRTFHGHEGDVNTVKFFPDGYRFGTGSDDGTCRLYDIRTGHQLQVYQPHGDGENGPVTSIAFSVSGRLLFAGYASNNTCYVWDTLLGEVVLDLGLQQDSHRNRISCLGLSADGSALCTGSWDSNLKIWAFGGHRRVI
T2 sequence 2: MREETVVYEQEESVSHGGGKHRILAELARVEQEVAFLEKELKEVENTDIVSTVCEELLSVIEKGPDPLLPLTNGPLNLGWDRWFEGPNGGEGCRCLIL

In assay [3] the target is T3, AGB1, Gβ subunit, split-luciferase fusion, expressed without AGG1 (Arabidopsis thaliana), P49177.
T3 chain: T2 sequence 1
As to conditions: remark: other sources report otherwise.

No constants are given. Whether binding was seen depends on the method and setting. Binding seen in cells or lysates may run through a third protein. Some entries that bind do so weakly or less than the wild type. Tags and fused reporters may be left off the sequences shown.

B1: ATBα, substrate-recognition (regulatory B) subunit of protein phosphatase 2A, split-luciferase fusion (protein, UniProt Q38821 1-513)
chain: MNGGDEVVAASADPSLPLEWRFSQVFGERSAGEEVQEVDIISAIEFDNSGNHLATGDRGGRVVLFERTDTNNSSGTRRELEEADYPLRHPEFRYKTEFQSHDPEFDYLKSLEIEEKINKIRWCQTANGALFLLSTNDKTIKFWKVQDKKIKKICDMNSDPSRTVGNGTVASSSNSNITNSCLVNGGVSEVNNSLCNDFSLPAGGISSLRLPVVVTSHESSPVARCRRVYAHAHDYHINSISNNSDGETFISADDLRINLWNLEISNQSFNIVDVKPAKMEDLSEVITSAEFHPTHCNMLAYSSSKGSIRLIDLRQSALCDSHSKLFEEPEQAGPKSFFTEIIASVSDIKFAKEGRYLLSRDYMTLKLWDINMDAGPVATFQVHEYLKPKLCDLYENDSIFDKFECCISGNGLRAATGSYSNLFRVFGVAPGSTETATLEASRNPMRRHVPIPSRPSRALSSITRVVSRGSESPGVDGNTNALDYTTKLLHLAWHPNENSIACAAANSLYMYYA
Take B1: the binding entry in assay [1] was “binds”.

B2: AtGPA1, canonical Gα subunit, split-luciferase fusion (protein, UniProt P18064 1-383)
chain: MGLLCSRSRHHTEDTDENTQAAEIERRIEQEAKAEKHIRKLLLLGAGESGKSTIFKQIKLLFQTGFDEGELKSYVPVIHANVYQTIKLLHDGTKEFAQNETDSAKYMLSSESIAIGEKLSEIGGRLDYPRLTKDIAEGIETLWKDPAIQETCARGNELQVPDCTKYLMENLKRLSDINYIPTKEDVLYARVRTTGVVEIQFSPVGENKKSGEVYRLFDVGGQRNERRKWIHLFEGVTAVIFCAAISEYDQTLFEDEQKNRMMETKELFDWVLKQPCFEKTSFMLFLNKFDIFEKKVLDVPLNVCEWFRDYQPVSSGKQEIEHAYEFVKKKFEELYYQNTAPDRVDRVFKIYRTTALDQKLVKKTFKLVDETLRRRNLLEAGLL
Regarding B2, the binding entry in assay [2] is “binds”.

B3: AtGPA1, canonical Gα subunit, split-luciferase fusion, P18064 1-383 (protein)
chain: B2 chain
On to B3, for which the binding entry in assay [3] was “no binding”.

B4: ATBβ, B subunit isoform of protein phosphatase 2A, split-luciferase fusion (protein, UniProt Q39247 1-501)
chain: MNGGDDAATSGPPPSLEWRFSQVFGERTAGEEVQEVDIISAIEFDKSGDHLATGDRGGRVVLFERTDTKDHGGSRKDLEQTDYPVRHPEFRYKTEFQSHEPEFDYLKSLEIEEKINKIRWCQPANGALFLLSTNDKTIKYWKVQEKKIKKISEMNIDPSESSNIPPQLVTNGLPADKGHDYLSKDFSFPPGGIPSLRLPVVVTSQETNLVARCRRVYAHAHDYHINSISNSSDGETFISADDLRVNLWNLEISNQSFNIVDVKPTNMEDLTEVITSAEFHPIHCNMLAYSSSKGSIRLIDMRQSALCDSHTKLFEEPEAPGSRSFFTEIIASISDIKFSKDGRYILSRDYMTLKLWDINMDSGPVASYQVHEHLRPRLCDLYENDSIFDKFECCLSGDGLRVATGSYSNLFRVFGASQGSTEAATLEASKNPMRRQIQTPARPSRSIGSMTRVVRRGSESPGTEANGNAYDFTTKLLHMAWHPTENSIACAAANSLYMYYA
As for B4, the binding result in assay [1] is recorded as “no binding”.
